The other results are listed elsewhere or left out.

Amino acid sequences for entries named in this document (tags omitted). A change or cut given only in a name is not applied to a line headed by its entry.
UniProt Q7Z434: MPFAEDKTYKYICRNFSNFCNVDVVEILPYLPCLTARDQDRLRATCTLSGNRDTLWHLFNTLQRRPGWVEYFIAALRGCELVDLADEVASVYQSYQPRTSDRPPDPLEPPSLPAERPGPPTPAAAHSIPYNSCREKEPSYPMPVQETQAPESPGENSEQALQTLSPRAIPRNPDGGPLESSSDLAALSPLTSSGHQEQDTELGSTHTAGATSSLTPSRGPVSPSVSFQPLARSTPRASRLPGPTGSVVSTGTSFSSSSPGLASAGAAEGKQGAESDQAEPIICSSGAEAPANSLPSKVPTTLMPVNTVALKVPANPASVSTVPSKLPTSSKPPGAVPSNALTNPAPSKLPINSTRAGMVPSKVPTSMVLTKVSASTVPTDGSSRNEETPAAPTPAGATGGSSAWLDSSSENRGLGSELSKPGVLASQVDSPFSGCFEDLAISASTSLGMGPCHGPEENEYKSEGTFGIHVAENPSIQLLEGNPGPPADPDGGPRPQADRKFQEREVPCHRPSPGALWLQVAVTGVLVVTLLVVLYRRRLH
UniProt O95402: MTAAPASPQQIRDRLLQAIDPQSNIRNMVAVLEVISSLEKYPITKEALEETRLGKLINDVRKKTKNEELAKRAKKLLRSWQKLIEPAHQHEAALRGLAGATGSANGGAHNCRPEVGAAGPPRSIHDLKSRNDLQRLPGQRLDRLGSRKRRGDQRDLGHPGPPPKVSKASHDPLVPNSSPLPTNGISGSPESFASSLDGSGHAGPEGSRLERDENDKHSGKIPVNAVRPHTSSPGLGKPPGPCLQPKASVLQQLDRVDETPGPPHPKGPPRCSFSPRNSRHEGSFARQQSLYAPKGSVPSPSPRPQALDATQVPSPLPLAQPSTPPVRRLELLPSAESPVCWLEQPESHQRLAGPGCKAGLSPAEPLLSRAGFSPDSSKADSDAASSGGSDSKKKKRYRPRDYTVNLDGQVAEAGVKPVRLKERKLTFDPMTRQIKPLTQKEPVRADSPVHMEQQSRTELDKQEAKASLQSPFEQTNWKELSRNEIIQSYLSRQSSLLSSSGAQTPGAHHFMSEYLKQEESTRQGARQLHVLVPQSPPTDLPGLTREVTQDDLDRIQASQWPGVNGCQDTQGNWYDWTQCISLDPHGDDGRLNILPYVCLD
UniProt Q8TC05: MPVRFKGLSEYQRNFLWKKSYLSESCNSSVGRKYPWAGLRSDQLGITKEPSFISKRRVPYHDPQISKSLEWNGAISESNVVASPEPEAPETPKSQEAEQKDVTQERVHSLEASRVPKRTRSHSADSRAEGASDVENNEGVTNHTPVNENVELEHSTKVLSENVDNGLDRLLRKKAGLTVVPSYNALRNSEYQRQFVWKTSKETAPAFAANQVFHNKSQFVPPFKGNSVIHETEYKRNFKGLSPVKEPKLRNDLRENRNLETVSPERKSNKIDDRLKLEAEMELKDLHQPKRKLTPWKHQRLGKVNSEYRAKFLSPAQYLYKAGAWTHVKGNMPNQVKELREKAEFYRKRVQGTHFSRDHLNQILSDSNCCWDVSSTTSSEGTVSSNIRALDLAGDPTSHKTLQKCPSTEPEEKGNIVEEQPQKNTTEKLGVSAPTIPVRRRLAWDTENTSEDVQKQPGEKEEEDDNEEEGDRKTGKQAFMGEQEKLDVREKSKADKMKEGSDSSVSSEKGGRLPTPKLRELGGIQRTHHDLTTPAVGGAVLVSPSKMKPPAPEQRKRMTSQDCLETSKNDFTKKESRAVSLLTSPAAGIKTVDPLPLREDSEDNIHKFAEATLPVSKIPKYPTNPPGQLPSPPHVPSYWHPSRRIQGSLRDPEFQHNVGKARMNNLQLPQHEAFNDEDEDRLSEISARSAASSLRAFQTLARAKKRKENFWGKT
UniProt Q9H1U4: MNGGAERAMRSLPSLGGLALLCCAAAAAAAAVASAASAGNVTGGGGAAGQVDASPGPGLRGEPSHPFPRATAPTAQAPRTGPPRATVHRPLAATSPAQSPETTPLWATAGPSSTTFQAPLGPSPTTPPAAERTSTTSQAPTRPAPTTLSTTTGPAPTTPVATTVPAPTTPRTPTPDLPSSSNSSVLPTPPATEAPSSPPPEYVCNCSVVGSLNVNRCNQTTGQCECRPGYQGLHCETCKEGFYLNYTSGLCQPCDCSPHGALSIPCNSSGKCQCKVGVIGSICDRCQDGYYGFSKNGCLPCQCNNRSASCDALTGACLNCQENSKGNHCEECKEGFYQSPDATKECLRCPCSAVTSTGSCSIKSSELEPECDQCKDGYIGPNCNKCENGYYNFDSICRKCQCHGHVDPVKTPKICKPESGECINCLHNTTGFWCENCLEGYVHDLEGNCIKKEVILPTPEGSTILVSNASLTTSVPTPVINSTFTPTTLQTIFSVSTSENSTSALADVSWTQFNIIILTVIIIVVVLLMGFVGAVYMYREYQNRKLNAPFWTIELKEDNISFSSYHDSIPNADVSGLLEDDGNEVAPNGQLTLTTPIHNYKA
UniProt P08582: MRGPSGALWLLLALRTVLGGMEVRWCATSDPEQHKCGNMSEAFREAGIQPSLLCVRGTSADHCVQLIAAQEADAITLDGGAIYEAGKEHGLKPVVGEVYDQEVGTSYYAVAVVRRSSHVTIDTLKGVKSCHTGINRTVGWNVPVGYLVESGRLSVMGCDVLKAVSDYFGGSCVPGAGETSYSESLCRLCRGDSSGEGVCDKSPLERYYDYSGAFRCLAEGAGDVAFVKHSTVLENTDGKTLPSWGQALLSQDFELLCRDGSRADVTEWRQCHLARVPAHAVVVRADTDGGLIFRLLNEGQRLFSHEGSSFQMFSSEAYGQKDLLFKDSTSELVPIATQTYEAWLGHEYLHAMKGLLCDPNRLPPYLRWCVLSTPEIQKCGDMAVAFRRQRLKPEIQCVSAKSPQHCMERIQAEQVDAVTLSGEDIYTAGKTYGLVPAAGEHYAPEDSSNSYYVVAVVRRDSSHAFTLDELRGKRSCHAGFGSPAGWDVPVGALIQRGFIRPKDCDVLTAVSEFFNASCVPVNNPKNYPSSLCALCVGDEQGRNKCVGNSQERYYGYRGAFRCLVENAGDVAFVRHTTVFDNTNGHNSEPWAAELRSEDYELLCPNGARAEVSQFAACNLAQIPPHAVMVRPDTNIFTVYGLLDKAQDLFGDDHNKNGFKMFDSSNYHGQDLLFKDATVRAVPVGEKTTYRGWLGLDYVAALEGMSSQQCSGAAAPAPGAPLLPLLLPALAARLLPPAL
UniProt O14770: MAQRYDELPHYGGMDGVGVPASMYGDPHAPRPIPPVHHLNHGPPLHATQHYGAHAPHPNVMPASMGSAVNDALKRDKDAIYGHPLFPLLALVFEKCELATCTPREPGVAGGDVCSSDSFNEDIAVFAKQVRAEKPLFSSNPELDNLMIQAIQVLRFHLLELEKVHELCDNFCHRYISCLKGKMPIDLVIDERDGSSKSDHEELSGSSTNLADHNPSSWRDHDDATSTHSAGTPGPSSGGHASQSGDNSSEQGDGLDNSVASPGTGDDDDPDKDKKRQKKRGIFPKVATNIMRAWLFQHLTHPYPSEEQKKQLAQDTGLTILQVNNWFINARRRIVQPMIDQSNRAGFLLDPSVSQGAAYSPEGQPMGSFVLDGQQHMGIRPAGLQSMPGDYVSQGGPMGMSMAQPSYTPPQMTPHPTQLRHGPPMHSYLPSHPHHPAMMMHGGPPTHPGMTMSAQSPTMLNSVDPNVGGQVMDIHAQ
UniProt Q5VZF2: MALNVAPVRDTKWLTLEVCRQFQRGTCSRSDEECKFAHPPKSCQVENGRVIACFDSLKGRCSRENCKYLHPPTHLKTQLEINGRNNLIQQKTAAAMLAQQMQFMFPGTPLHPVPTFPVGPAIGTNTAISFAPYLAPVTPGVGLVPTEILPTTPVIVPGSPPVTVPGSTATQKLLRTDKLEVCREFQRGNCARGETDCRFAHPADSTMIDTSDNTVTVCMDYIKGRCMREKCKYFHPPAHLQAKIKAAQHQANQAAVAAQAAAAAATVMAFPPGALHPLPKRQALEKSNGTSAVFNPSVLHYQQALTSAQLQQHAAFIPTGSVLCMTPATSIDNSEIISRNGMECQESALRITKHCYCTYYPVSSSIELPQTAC
UniProt O00255, whole entry, looked up: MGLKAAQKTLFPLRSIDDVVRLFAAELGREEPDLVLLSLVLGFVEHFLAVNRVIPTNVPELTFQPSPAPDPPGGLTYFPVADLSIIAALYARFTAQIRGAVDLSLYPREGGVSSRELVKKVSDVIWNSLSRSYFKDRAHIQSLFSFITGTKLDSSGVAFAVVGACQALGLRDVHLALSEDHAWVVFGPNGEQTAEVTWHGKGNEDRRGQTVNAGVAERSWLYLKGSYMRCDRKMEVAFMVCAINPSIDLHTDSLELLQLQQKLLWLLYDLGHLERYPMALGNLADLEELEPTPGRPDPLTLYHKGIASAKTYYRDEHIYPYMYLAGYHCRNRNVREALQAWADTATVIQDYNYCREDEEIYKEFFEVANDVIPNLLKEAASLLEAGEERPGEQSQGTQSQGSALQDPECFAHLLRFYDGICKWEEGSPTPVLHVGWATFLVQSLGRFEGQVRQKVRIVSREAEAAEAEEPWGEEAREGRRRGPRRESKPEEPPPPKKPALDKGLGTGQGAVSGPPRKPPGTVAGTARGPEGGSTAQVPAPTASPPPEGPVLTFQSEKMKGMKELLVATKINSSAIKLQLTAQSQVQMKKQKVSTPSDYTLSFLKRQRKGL
UniProt Q9NVC6: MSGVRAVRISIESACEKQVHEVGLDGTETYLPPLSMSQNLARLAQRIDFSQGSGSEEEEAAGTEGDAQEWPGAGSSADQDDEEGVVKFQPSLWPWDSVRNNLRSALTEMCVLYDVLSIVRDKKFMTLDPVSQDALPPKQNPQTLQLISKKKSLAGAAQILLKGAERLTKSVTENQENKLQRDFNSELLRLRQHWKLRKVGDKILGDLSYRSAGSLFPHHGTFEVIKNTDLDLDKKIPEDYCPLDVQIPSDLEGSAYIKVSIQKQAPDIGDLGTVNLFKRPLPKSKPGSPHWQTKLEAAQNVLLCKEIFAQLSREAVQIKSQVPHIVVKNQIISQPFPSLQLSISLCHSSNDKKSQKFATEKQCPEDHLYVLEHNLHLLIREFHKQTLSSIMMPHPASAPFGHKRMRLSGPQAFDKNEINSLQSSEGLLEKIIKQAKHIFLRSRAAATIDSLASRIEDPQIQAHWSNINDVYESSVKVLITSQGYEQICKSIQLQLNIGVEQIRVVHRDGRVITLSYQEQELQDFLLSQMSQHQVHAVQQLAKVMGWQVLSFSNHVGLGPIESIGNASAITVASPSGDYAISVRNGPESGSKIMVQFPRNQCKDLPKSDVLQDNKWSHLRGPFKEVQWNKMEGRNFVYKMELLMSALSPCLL
UniProt Q9H3U5: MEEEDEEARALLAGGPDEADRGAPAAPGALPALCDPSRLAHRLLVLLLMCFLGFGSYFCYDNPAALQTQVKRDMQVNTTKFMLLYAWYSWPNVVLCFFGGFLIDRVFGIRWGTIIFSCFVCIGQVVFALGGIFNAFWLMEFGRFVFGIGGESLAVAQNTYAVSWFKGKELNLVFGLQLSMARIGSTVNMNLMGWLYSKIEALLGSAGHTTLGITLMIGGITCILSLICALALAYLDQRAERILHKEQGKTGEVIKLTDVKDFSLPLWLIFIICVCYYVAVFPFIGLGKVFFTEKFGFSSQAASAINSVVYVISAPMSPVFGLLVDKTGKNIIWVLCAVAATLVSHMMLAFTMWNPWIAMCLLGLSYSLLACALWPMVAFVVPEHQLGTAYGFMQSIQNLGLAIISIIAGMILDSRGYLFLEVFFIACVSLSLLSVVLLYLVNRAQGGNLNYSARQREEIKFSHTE
UniProt Q6ZWT7: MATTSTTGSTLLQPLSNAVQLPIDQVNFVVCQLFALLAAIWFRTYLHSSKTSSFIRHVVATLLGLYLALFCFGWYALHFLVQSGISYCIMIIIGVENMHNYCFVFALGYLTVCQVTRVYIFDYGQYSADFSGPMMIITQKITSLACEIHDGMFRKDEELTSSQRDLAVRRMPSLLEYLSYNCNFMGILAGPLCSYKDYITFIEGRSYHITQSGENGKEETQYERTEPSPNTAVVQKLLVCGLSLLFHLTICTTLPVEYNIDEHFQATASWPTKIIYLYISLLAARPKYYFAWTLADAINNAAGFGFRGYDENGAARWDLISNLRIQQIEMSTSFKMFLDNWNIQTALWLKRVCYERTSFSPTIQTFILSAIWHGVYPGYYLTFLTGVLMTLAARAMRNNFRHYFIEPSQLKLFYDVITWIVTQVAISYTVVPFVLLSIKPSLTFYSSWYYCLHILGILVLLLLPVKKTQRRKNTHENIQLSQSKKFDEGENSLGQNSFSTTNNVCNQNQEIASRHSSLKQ
UniProt A4D2B0: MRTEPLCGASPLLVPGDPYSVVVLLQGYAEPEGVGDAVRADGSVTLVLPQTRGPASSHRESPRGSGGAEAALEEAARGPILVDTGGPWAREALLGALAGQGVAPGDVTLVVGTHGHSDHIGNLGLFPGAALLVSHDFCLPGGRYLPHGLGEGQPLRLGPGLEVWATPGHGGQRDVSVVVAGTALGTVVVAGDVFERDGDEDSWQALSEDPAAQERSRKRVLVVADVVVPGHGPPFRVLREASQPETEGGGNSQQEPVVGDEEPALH

Compound in one assay: C1=CC=C2C(=C1)C3=NNC4=CC=CC(=C43)C2=O
The experiment in a line: log2 fold change, soluble protein after heating vs DMSO (PISA); higher = thermal stabilisation; K562 lysate, 10 uM; active = over 0.2 and 3.5 SD of the protein, either way, in both replicates (recomputed). In short, it runs like this:
(§1)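 Quantification was by TMTpro 16plex LC-MS/MS with equalised channel sums, applied to the supernatant after 21,000xg for 90 min. Samples were crude K562 extract at 1 mg/mL protein in PBS pH 7.4 with 1 mM MgCl2, treated with 10 μM compound for 30 min, heated for 3 min across 48°C-58°C, pooled and brought to 0.5% NP-40 at 4°C. Values are log-two fold changes in thermal stability relative to solvent controls, from duplicates.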
Consider MAVS (UniProt Q7Z434), for which the log2 fold change is inactive: -0.04.
On to MED26 (UniProt O95402), for which the log2 fold change is inactive: -0.082.
Same read-out and setting: for MDM1 (UniProt Q8TC05) the value was inactive: -0.041; for MEGF9 (UniProt Q9H1U4), inactive: -0.108; for MELTF (UniProt P08582), inactive: -0.005.
Take MED11 (UniProt Q9P086): the log2 fold change was inactive: 0.171.
In the case of MEIS2 (UniProt O14770), the log2 fold change was inactive: 0.011.
The same measure, in the same setting: for MCMBP isoform 2 (UniProt Q9BTE3) the value was inactive: -0.411; for MFAP3 (UniProt P55082), inactive: 0.002; for MBNL2 (UniProt Q5VZF2), inactive: -0.07.
Regarding MEN1 (UniProt O00255), the log2 fold change is inactive: -0.058.
Still for that read-out and setting: to MEPCE (UniProt Q7L2J0) belongs inactive: 0.022.
On the same count and under the same terms, to MED17 (UniProt Q9NVC6) belongs inactive: -0.055.
Same read-out and setting: to MEF2D (UniProt Q14814) belongs inactive: 0.032.
MFSD1 isoform 6 (UniProt Q9H3U5): the log2 fold change is inactive: 0.03.
On the same count and under the same terms, for MBOAT2 (UniProt Q6ZWT7) the value was inactive: -0.076.

Compound in the next assay: C1CCN(C1)C(=O)NC2=CC=CC(=C2)NC3=NC=C(C(=N3)NCCC4=CN=CN4)Br
Described as above. The method in brief:
as §1
Consider METTL7A (UniProt Q9H8H3), for which the log2 fold change was active: 0.385.
On the same count and under the same terms, to MCFD2 (UniProt Q8NI22) belongs inactive: 0.002; to MCM5 (UniProt P33992), inactive: -0.015.
MBOAT1 (UniProt Q6ZNC8): the log2 fold change was inactive: -0.013.
For MED13L (UniProt Q71F56), the log2 fold change was inactive: 0.024.
As for MBLAC1 (UniProt A4D2B0), the log2 fold change is inactive: 0.074.
For the target METTL14 (UniProt Q9HCE5), the log2 fold change was inactive: -0.009.
With MELK (UniProt Q14680), the log2 fold change is inactive: 0.2.
Still for that read-out and setting: to MED12 isoform 2 (UniProt Q93074) belongs inactive: -0.013.
On the same count and under the same terms, to METTL16 (UniProt Q86W50) belongs inactive: 0.019; to METTL5 (UniProt Q9NRN9), inactive: 0.017.
For MED20 (UniProt Q9H944), the log2 fold change was inactive: -0.08.
As to MED14 (UniProt O60244), the log2 fold change was inactive: -0.014.
MED22 isoform 2 (UniProt Q15528): the log2 fold change is inactive: -0.037.
MAVS (UniProt Q7Z434): the log2 fold change was inactive: 0.
Turning to MED26 (UniProt O95402), the log2 fold change is inactive: 0.082.
On the same count and under the same terms, for MDM1 (UniProt Q8TC05) the value was inactive: -0.05; for MEGF9 (UniProt Q9H1U4), inactive: -0.044; for MELTF (UniProt P08582), inactive: -0.019.
On the same count and under the same terms, for MEIS2 (UniProt O14770) the value was inactive: -0.111.
Turning to MCMBP isoform 2 (UniProt Q9BTE3), the log2 fold change is inactive: 0.024.
As for MBNL2 (UniProt Q5VZF2), the log2 fold change was inactive: 0.114.
Still for that read-out and setting: to MEN1 (UniProt O00255) belongs inactive: 0.126; to MEPCE (UniProt Q7L2J0), inactive: 0.011; to MED17 (UniProt Q9NVC6), inactive: -0.007.
In the case of MEF2D (UniProt Q14814), the log2 fold change was inactive: -0.014.
On the same count and under the same terms, for MFSD1 isoform 6 (UniProt Q9H3U5) the value was inactive: 0.029; for MBOAT2 (UniProt Q6ZWT7), inactive: -0.148.

Compound in a further assay: C1CN(CCC1(CC2=CC=C(C=C2)Cl)N)C3=NC=NC4=C3C=CN4
Described as above. The method in brief:
as §1
Take METTL7A (UniProt Q9H8H3): the log2 fold change is inactive: 0.06.
For the target MCFD2 (UniProt Q8NI22), the log2 fold change was inactive: 0.075.
Consider MCM5 (UniProt P33992), for which the log2 fold change was inactive: -0.002.
MBOAT1 (UniProt Q6ZNC8): the log2 fold change was inactive: -0.03.
Take MED13L (UniProt Q71F56): the log2 fold change was inactive: 0.013.
Regarding MBLAC1 (UniProt A4D2B0), the log2 fold change is inactive: 0.05.
On the same count and under the same terms, for METTL14 (UniProt Q9HCE5) the value was inactive: 0.011; for MELK (UniProt Q14680), inactive: -0.192; for MED12 isoform 2 (UniProt Q93074), inactive: 0.011.
Regarding METTL16 (UniProt Q86W50), the log2 fold change is inactive: -0.019.
The same measure, in the same setting: to METTL5 (UniProt Q9NRN9) belongs inactive: -0.038.
As to MED20 (UniProt Q9H944), the log2 fold change is inactive: -0.067.
Same read-out and setting: for MED14 (UniProt O60244) the value was inactive: -0.042.
Same read-out and setting: to MED22 isoform 2 (UniProt Q15528) belongs inactive: 0.099; to MAVS (UniProt Q7Z434), inactive: 0.021; to MED26 (UniProt O95402), inactive: -0.162.
On the same count and under the same terms, for MDM1 (UniProt Q8TC05) the value was inactive: -0.075.
As for MEGF9 (UniProt Q9H1U4), the log2 fold change was inactive: 0.125.
On the same count and under the same terms, to MELTF (UniProt P08582) belongs inactive: 0.038; to MEIS2 (UniProt O14770), inactive: -0.032.
Consider MCMBP isoform 2 (UniProt Q9BTE3), for which the log2 fold change is inactive: 0.055.
Same read-out and setting: for MBNL2 (UniProt Q5VZF2) the value was inactive: -0.036; for MEN1 (UniProt O00255), inactive: -0.076; for MEPCE (UniProt Q7L2J0), inactive: -0.025.
For the target MED17 (UniProt Q9NVC6), the log2 fold change is inactive: -0.03.
On the same count and under the same terms, for MEF2D (UniProt Q14814) the value was inactive: 0.012; for MFSD1 isoform 6 (UniProt Q9H3U5), inactive: -0.066.
The same measure, in the same setting: to MBOAT2 (UniProt Q6ZWT7) belongs inactive: -0.011.

Values taken from the supplement of paper PMC10849652.
